These results are taken from the supplement of paper PMC4604168 (melanoma cell lines).

Molecules are shown by their SMILES. The list shows a part of the results. Repeats are few or missing, and single values can be far off.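 The apoptosis fraction was the count of cleaved-PARP antibody-stained nuclei relative to all DNA-stained nuclei, imaged in 1,536-well plates. Screening doses were set so most cells survived, and baseline and induced cleaved-PARP levels vary greatly across cell lines.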

This assay deals with WM1745. As to the kind of experiment: cleaved PARP positive nuclei fraction relative to DMSO control; melanoma cells; higher = more apoptosis. As to conditions: library dose: low library concentration; 72 h.
Turning to `O=c1[nH]nc(Sc2ncc([N+](=O)[O-])s2)n1-c1ccc2c(c1)OCCO2` + COc1ccc(COc2ccc(Cc3cnc(N)nc3N)cc2OC)cc1 [GW2580] (first compound 0.2 µM, partner dose 1 µM), the “cleaved PARP positive nuclei fraction” value was found to be 89.8%.
Regarding `COc1cc([C@@H]2c3cc4c(cc3[C@@H](O[C@@H]3O[C@@H]5CO[C@@H](C)O[C@H]5[C@H](O)[C@H]3O)[C@H]3COC(=O)[C@H]23)OCO4)cc(OC)c1O` [etoposide] + O=S(=O)(c1ccccc1)N(CC(F)(F)F)c1ccc(C(O)(C(F)(F)F)C(F)(F)F)cc1 [T0901317] (first compound 0.02 µM, partner dose 1.4 µM), the “cleaved PARP positive nuclei fraction” value turned out to be 103%.
As for `O=c1[nH]nc(Sc2ncc([N+](=O)[O-])s2)n1-c1ccc2c(c1)OCCO2` + O=S(=O)(c1ccccc1)N(CC(F)(F)F)c1ccc(C(O)(C(F)(F)F)C(F)(F)F)cc1 [T0901317] (first compound 0.2 µM, partner dose 1.4 µM), the “cleaved PARP positive nuclei fraction” value was 102%.
With `Cc1cc(Nc2cc(N3CCN(C)CC3)nc(Sc3ccc(NC(=O)C4CC4)cc3)n2)n[nH]1` [Tozasertib] + Cn1cncc1[C@@](N)(c1ccc(Cl)cc1)c1ccc2c(c1)c(-c1cccc(Cl)c1)cc(=O)n2C [tipifarnib] (first compound 0.006 µM, partner dose 0.01 µM), the “cleaved PARP positive nuclei fraction” value stood at 99.6%.
`CC[C@]1(O)C[C@H]2CN(CCc3c([nH]c4ccccc34)[C@@](C(=O)OC)(c3cc4c(cc3OC)N(C=O)[C@H]3[C@@](O)(C(=O)OC)[C@H](OC(C)=O)[C@]5(CC)C=CCN6CC[C@]43[C@@H]65)C2)C1` [vincristine] + c1cc(-c2cnn3cc(-c4ccc(OCCN5CCCCC5)cc4)cnc23)ccn1 [Dorsomorphin] (first compound 0.0001 µM, partner dose 0.4 µM): the “cleaved PARP positive nuclei fraction” value came to 124%.
With `Cc1ccc(Nc2nccc(N(C)c3ccc4c(C)n(C)nc4c3)n2)cc1S(N)(=O)=O` [Pazopanib] + CN(NC(=O)CC(=O)NN(C)C(=S)c1ccccc1)C(=S)c1ccccc1 [STA4783] (first compound 0.4 µM, partner dose 0.006 µM), the “cleaved PARP positive nuclei fraction” value turned out to be 223%.
Regarding `Cc1cn(-c2cc(NC(=O)c3ccc(C)c(Nc4nccc(-c5cccnc5)n4)c3)cc(C(F)(F)F)c2)cn1` [nilotinib] + COc1ccc(COc2ccc(Cc3cnc(N)nc3N)cc2OC)cc1 [GW2580] (first compound 0.2 µM, partner dose 1 µM), the “cleaved PARP positive nuclei fraction” value was determined as 97.1%.
`COc1cc([C@@H]2c3cc4c(cc3[C@@H](O[C@@H]3O[C@@H]5CO[C@@H](C)O[C@H]5[C@H](O)[C@H]3O)[C@H]3COC(=O)[C@H]23)OCO4)cc(OC)c1O` [etoposide] + C[C@@H]1CCN(C(=O)CC#N)C[C@@H]1N(C)c1ncnc2[nH]ccc12 [CP690550] (first compound 0.02 µM, partner dose 1 µM): the “cleaved PARP positive nuclei fraction” value worked out at 93.9%.
For the molecule `Cc1cn(-c2cc(NC(=O)c3ccc(C)c(Nc4nccc(-c5cccnc5)n4)c3)cc(C(F)(F)F)c2)cn1` [nilotinib] + Cn1cc(/C=C2\C(=O)Nc3cccnc32)c2ccccc21 [GW441756] (first compound 0.2 µM, partner dose 0.4 µM), the “cleaved PARP positive nuclei fraction” value was found to be 91.4%.
Under `Cc1cn(-c2cc(NC(=O)c3ccc(C)c(Nc4nccc(-c5cccnc5)n4)c3)cc(C(F)(F)F)c2)cn1` [nilotinib] + O=c1cc(-c2cccc3c2Sc2ccccc2S3)oc(N2CCOCC2)c1 [KU55933] (first compound 0.2 µM, partner dose 1 µM) stands 103%; under `CC[C@]1(O)C[C@H]2CN(CCc3c([nH]c4ccccc34)[C@@](C(=O)OC)(c3cc4c(cc3OC)N(C=O)[C@H]3[C@@](O)(C(=O)OC)[C@H](OC(C)=O)[C@]5(CC)C=CCN6CC[C@]43[C@@H]65)C2)C1` [vincristine] + NC(=O)Nc1cc(-c2cccc(F)c2)sc1C(=O)N[C@H]1CCCNC1 [AZD7762] (first compound 0.0001 µM, partner dose 0.02 µM), 92.9%.
Consider `CCCCCCCCCCCCCCCCCCOP(=O)([O-])OC1CC[N+](C)(C)CC1` [Perifosine] + COc1ccc2c(c1)CCC1C2CCC2(C)C(NCCCCCCN3C(=O)C=CC3=O)CCC12 [U73122] (first compound 0.4 µM, partner dose 0.4 µM), for which the “cleaved PARP positive nuclei fraction” value was found to be 90.4%.
Consider `Cc1cn(-c2cc(NC(=O)c3ccc(C)c(Nc4nccc(-c5cccnc5)n4)c3)cc(C(F)(F)F)c2)cn1` [nilotinib] + Cc1ccc(NC(=O)c2cccc(N(C)C)c2)cc1NC(=O)c1ccc(O)cc1 [ZM336372] (first compound 0.2 µM, partner dose 2 µM), for which the “cleaved PARP positive nuclei fraction” value amounted to 98.6%.
In the case of `CC[C@]1(O)C[C@H]2CN(CCc3c([nH]c4ccccc34)[C@@](C(=O)OC)(c3cc4c(cc3OC)N(C=O)[C@H]3[C@@](O)(C(=O)OC)[C@H](OC(C)=O)[C@]5(CC)C=CCN6CC[C@]43[C@@H]65)C2)C1` [vincristine] + O=C(Nc1cccc(Cl)c1)Nc1ncc(CCNc2ncnc3ccsc23)s1 [SNS314] (first compound 0.0001 µM, partner dose 0.0008 µM), the “cleaved PARP positive nuclei fraction” value is 112%.
Take `Cc1ccc(Nc2nccc(N(C)c3ccc4c(C)n(C)nc4c3)n2)cc1S(N)(=O)=O` [Pazopanib] + O=C(Nc1cccc(Cl)c1)Nc1ncc(CCNc2ncnc3ccsc23)s1 [SNS314] (first compound 0.4 µM, partner dose 0.0008 µM): the “cleaved PARP positive nuclei fraction” value turned out to be 99.5%.
Turning to `CC[C@]1(O)C[C@H]2CN(CCc3c([nH]c4ccccc34)[C@@](C(=O)OC)(c3cc4c(cc3OC)N(C=O)[C@H]3[C@@](O)(C(=O)OC)[C@H](OC(C)=O)[C@]5(CC)C=CCN6CC[C@]43[C@@H]65)C2)C1` [vincristine] + COc1ccc(-c2ccc3c(N4CCOCC4)nc(N4C[C@@H](C)O[C@@H](C)C4)nc3n2)cc1CO [KU0063794] (first compound 0.0001 µM, partner dose 0.02 µM), the “cleaved PARP positive nuclei fraction” value came to 184%.
In the case of `O=c1[nH]nc(Sc2ncc([N+](=O)[O-])s2)n1-c1ccc2c(c1)OCCO2` + COc1cc(Nc2ncc(F)c(Nc3ccc4c(n3)NC(=O)C(C)(C)O4)n2)cc(OC)c1OC [Tamatinib] (first compound 0.2 µM, partner dose 0.4 µM), the “cleaved PARP positive nuclei fraction” value is 120%.
Consider `O=C(/C=C/c1cccnc1)NCCCCC1CCN(C(=O)c2ccccc2)CC1` + Cc1cc(N2CCOCC2)cc2[nH]c(-c3c(NC[C@@H](O)c4cccc(Cl)c4)cc[nH]c3=O)nc12 [BMS536924] (first compound 0.01 µM, partner dose 0.2 µM), for which the “cleaved PARP positive nuclei fraction” value is 105%.
Regarding `Cc1cc(Nc2cc(N3CCN(C)CC3)nc(Sc3ccc(NC(=O)C4CC4)cc3)n2)n[nH]1` [Tozasertib] + CC1(C)NC(=O)N(c2ccc([N+](=O)[O-])c(C(F)(F)F)c2)C1=O [nilutamide] (first compound 0.006 µM, partner dose 1 µM), the “cleaved PARP positive nuclei fraction” value was found to be 125%.
As to `O=C(/C=C/c1cccnc1)NCCCCC1CCN(C(=O)c2ccccc2)CC1` + O=S(=O)(c1ccccc1)N(CC(F)(F)F)c1ccc(C(O)(C(F)(F)F)C(F)(F)F)cc1 [T0901317] (first compound 0.01 µM, partner dose 1.4 µM), the “cleaved PARP positive nuclei fraction” value is 102%.
Under `CC[C@]1(O)C[C@H]2CN(CCc3c([nH]c4ccccc34)[C@@](C(=O)OC)(c3cc4c(cc3OC)N(C=O)[C@H]3[C@@](O)(C(=O)OC)[C@H](OC(C)=O)[C@]5(CC)C=CCN6CC[C@]43[C@@H]65)C2)C1` [vincristine] + Cc1cc(N2CCOCC2)cc2[nH]c(-c3c(NC[C@@H](O)c4cccc(Cl)c4)cc[nH]c3=O)nc12 [BMS536924] (first compound 0.0001 µM, partner dose 0.2 µM) stands 123%; under `O=c1[nH]nc(Sc2ncc([N+](=O)[O-])s2)n1-c1ccc2c(c1)OCCO2` + O=c1cc(-c2cccc3c2Sc2ccccc2S3)oc(N2CCOCC2)c1 [KU55933] (first compound 0.2 µM, partner dose 1 µM), 82%.
For the molecule `COc1cc([C@@H]2c3cc4c(cc3[C@@H](O[C@@H]3O[C@@H]5CO[C@@H](C)O[C@H]5[C@H](O)[C@H]3O)[C@H]3COC(=O)[C@H]23)OCO4)cc(OC)c1O` [etoposide] + O=C1NC(=O)/C(=C/c2ccc(-c3ccc(F)cc3O)o2)S1 [AS252424] (first compound 0.02 µM, partner dose 1 µM), the “cleaved PARP positive nuclei fraction” value amounted to 96.4%.
With `Cc1cn(-c2cc(NC(=O)c3ccc(C)c(Nc4nccc(-c5cccnc5)n4)c3)cc(C(F)(F)F)c2)cn1` [nilotinib] + CCCCCCCCCCCC1=C(O)C(=O)C=C(O)C1=O [Embelin] (first compound 0.2 µM, partner dose 1.2 µM), the “cleaved PARP positive nuclei fraction” value is 91.8%.
For `O=c1[nH]nc(Sc2ncc([N+](=O)[O-])s2)n1-c1ccc2c(c1)OCCO2` + CCCCCCCCCCCC1=C(O)C(=O)C=C(O)C1=O [Embelin] (first compound 0.2 µM, partner dose 1.2 µM), the “cleaved PARP positive nuclei fraction” value came out at 84.8%.
`O=c1[nH]nc(Sc2ncc([N+](=O)[O-])s2)n1-c1ccc2c(c1)OCCO2` + O=C(Nc1cccc(Cl)c1)Nc1ncc(CCNc2ncnc3ccsc23)s1 [SNS314] (first compound 0.2 µM, partner dose 0.0008 µM): the “cleaved PARP positive nuclei fraction” value came to 84%.
For `CCCCCCCCCCCCCCCCCCOP(=O)([O-])OC1CC[N+](C)(C)CC1` [Perifosine] + NC(=O)Nc1cc(-c2cccc(F)c2)sc1C(=O)N[C@H]1CCCNC1 [AZD7762] (first compound 0.4 µM, partner dose 0.02 µM), the “cleaved PARP positive nuclei fraction” value turned out to be 80.6%.
